Data published in publication doi:10.1101/2023.11.03.565550.
Results are given in words; binding and its absence hold for the method and conditions named. Some binding calls cover weakened binding; strength is not graded here. Tags and fused reporters may be left off the sequences shown.

Chains of the proteins cited; added tags and fusions are not shown.
UniProt O80480: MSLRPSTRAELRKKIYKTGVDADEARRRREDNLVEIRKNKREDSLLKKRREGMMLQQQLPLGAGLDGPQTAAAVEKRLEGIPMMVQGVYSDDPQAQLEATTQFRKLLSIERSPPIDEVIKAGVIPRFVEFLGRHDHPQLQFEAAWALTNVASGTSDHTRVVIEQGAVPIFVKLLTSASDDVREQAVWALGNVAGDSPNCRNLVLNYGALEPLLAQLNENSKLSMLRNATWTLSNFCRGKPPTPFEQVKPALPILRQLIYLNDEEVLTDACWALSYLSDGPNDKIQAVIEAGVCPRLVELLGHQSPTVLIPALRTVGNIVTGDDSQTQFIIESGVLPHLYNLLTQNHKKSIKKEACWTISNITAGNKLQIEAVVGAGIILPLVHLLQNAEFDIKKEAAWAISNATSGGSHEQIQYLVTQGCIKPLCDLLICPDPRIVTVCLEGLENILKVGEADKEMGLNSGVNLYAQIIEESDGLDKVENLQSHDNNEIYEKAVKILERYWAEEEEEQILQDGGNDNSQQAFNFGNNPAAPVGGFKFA
UniProt O04294: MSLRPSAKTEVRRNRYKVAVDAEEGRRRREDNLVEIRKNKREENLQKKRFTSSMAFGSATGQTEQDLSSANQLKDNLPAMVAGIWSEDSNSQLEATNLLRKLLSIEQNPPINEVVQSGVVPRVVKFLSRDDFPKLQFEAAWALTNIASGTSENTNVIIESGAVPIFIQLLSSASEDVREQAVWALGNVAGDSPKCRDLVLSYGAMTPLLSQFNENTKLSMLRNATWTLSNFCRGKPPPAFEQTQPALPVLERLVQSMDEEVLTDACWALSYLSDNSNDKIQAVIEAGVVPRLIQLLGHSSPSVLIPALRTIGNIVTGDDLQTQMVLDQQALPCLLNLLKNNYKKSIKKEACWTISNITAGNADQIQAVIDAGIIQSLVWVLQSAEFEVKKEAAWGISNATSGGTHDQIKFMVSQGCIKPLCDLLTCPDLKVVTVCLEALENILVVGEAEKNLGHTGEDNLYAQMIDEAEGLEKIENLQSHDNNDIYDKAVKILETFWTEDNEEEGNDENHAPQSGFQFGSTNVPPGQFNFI
UniProt F4JL11: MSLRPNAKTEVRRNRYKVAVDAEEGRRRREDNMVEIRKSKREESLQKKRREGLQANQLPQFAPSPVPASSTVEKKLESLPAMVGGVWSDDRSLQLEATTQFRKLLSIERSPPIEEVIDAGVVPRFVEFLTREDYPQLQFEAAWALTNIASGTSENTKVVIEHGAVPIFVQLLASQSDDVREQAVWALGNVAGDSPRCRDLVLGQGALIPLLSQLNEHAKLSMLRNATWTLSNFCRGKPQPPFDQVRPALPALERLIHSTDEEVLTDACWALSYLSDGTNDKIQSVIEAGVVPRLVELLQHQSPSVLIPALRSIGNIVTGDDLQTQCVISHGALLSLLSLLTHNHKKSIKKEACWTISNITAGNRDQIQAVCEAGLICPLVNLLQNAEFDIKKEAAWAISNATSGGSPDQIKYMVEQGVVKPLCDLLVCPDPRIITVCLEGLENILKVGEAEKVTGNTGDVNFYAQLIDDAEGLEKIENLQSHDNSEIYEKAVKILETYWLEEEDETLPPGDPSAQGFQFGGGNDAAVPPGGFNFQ
UniProt Q96321: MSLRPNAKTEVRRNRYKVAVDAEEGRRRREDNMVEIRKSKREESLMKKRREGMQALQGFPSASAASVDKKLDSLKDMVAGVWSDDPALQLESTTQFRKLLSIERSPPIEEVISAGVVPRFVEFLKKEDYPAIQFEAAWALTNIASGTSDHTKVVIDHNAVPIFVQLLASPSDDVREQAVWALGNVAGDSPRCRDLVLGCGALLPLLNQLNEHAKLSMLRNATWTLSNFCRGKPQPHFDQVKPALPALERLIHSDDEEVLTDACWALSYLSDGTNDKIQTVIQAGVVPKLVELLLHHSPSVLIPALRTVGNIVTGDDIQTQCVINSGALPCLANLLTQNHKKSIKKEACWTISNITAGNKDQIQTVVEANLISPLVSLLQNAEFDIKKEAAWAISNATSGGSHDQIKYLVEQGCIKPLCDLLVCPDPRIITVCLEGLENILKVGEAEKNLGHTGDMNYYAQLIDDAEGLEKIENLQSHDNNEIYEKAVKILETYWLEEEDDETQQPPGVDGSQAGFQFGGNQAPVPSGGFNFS

Columns and labels:
[1] = target: T1, gl2^ΔNLS bait of the split-ubiquitin cytosolic yeast two-hybrid assay (OST4 anchor fusion) (Arabidopsis) (UniProt P46607); assay: two-hybrid
T1 sequence: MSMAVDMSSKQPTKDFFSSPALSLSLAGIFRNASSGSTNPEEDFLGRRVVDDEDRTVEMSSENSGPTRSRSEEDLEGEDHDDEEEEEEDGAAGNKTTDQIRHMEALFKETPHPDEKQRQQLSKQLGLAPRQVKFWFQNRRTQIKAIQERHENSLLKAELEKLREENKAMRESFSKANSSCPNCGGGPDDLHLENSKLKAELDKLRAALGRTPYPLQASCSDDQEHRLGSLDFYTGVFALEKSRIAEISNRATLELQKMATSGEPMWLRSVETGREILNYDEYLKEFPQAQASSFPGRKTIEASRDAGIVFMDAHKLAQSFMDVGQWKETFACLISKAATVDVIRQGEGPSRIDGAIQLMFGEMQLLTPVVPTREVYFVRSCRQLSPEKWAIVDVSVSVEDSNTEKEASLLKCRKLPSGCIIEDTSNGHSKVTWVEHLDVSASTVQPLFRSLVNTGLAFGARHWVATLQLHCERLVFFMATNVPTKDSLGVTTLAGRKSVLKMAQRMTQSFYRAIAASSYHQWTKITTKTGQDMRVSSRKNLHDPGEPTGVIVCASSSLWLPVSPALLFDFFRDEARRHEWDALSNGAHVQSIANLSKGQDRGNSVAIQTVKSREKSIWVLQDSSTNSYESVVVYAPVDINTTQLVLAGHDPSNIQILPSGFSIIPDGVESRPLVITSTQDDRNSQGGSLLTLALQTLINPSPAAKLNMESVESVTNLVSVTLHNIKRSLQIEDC

[2] = target: T2, GL2 bait of the split-ubiquitin cytosolic yeast two-hybrid assay (OST4 anchor fusion) (Arabidopsis) (UniProt P46607); assay: two-hybrid
T2 sequence: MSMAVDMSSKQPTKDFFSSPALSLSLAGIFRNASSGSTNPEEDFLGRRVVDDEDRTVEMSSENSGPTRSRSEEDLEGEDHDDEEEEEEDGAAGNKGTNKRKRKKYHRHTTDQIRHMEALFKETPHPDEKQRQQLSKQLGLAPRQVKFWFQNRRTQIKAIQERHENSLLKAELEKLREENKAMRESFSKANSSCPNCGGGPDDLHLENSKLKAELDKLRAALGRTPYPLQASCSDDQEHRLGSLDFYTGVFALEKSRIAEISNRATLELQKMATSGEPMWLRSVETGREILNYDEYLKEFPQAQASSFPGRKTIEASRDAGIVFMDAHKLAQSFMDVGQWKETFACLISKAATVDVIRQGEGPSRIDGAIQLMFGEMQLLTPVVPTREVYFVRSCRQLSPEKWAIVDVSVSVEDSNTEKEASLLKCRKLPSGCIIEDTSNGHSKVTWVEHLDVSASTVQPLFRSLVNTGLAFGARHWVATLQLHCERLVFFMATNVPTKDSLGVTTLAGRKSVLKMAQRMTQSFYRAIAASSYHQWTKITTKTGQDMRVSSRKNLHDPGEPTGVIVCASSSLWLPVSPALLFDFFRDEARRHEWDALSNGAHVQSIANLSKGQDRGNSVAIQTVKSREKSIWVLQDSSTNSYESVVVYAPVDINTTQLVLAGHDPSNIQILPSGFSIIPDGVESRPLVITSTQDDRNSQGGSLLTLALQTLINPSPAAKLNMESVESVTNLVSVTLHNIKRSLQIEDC

binding [1]	binding [2]	Substance
no binding	binds weakly	Importin α isoform IMPα-4, cytoY2H prey (from UniProt O80480 1-538)
no binding	binds weakly	Importin α isoform IMPα-3, cytoY2H prey (from UniProt O04294 1-531)
no binding	binds weakly	Importin α isoform IMPα-2, cytoY2H prey (from UniProt F4JL11 1-535)
no binding	binds weakly	Importin α isoform IMPα-1, cytoY2H prey (from UniProt Q96321 1-532)
